# Results: paper PMC3077385
# By UniProt entry, the sequences of proteins in these tests, tags left out. Where a name states a change or a piece, a line headed by the entry shows the natural chain unless it says otherwise.
# UniProt P93002: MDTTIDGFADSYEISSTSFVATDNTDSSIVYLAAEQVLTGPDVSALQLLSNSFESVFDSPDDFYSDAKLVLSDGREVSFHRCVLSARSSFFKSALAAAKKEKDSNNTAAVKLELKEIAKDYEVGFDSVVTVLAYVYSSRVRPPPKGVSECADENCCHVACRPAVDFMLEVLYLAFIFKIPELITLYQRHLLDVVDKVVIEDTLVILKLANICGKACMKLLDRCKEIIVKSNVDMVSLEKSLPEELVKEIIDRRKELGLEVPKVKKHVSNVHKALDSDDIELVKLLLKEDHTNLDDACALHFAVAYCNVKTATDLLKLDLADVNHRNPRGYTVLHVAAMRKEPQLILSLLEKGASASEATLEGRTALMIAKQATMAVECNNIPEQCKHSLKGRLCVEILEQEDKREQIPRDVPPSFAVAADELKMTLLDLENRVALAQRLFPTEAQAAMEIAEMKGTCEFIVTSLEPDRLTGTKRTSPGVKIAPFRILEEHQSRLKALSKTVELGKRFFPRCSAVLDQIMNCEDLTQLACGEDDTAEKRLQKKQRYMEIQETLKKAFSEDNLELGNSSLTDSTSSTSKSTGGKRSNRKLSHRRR
# UniProt Q5ZEF1: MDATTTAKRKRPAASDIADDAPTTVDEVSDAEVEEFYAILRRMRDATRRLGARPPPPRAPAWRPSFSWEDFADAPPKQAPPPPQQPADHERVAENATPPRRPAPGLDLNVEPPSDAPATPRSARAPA
# No constants are given. Whether binding was seen depends on the method and setting. Binding calls can cover weak binding; strength is not graded here.
# Target: Arabidopsis NPR1 (Arabidopsis) (UniProt P93002)
# Experiment: two-hybrid; Gal4 two-hybrid screen of a rice cDNA library (HybriZAP, seven-week-old IRBB21 leaf mRNA, in Y187) by mating with baits in HF7c; selection on SD -His -Trp -Leu + 2 mM 3-AT; prey plasmids re-transformed into AH109 and confirmed on -His -Leu -Trp + 2 mM 3-AT and on -Ade -Leu -Trp
substance,measurement,value
NRR (from UniProt Q5ZEF1),binding,binds
